Source: PubChem BioAssay AID488837 (National Center for Advancing Translational Sciences (NCATS), 2010)
Hit rate of the full screen: of about 330,000 compounds, about 20 (0.006%) were called active. The inconclusive results got no clear call from the source; some entries with a clear call stand among them for comparison. Calls follow the shape of the dose curve; as a rule, active = well fitted inhibition curve with a large enough effect; inconclusive = small, poorly fitted or top-dose-only effect, or effect the other way; inactive = flat fitted curve, though single readings scatter. Potencies beside an inconclusive call are fits to weak or partial responses and may not hold up.

By UniProt entry, the sequences of proteins in these tests, tags left out. Where a name states a change or a piece, a line headed by the entry shows the natural chain unless it says otherwise.
UniProt O00167: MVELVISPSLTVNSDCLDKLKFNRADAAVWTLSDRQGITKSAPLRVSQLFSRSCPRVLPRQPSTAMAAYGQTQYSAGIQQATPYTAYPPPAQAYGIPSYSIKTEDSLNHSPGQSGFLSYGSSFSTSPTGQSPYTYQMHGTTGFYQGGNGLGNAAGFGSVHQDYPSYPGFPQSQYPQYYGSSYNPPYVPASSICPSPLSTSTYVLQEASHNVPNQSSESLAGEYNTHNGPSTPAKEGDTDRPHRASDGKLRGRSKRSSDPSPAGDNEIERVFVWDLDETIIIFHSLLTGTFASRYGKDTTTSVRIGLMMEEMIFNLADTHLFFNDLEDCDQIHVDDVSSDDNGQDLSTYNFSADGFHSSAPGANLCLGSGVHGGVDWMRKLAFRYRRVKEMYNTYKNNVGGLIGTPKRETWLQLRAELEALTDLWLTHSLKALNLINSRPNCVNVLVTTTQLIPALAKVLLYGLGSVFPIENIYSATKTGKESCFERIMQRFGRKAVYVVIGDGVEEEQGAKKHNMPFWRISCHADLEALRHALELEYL

These compounds were tested against Protein phosphatase EYA2 (Homo sapiens) (UniProt O00167) (assay: qHTS Assay for Inhibitors of the Phosphatase Activity of Eya2). Details: recombinant Eya2, OMFP fluorescence dephosphorylation (OMFP is methylfluorescein phosphate); activity, negative = inhibition: at 76.9 µM (top of the series) unless noted.
Outline: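 Eya2 (0.2 uM) preincubated 10 min at ambient with compound, then OMFP substrate added at 50 uM; 10 min reaction in 50 mM HEPES pH 7.5, 50 mM NaCl, 5 uM MgCl2, 0.05% BSA, 1 mM DTT. Fluorescence read at Ex 485/Em 525 nm.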
% is scaled to controls: 0 for no effect and ±100 for the full control effect; potency is read from the fitted curve at half-maximal effect.

SMILES	Potency	activity, negative = inhibition
COc1cccc(-c2nn(-c3ccc(C)cc3)cc2C(=O)NCC2CCCO2)c1 (configuration not stated)	inconclusive: 79.4 µM [inhibitor, single point]	–
COc1ccc(/C=C/C(=O)Nc2ccccc2)cc1OC	inconclusive: 100 µM [inhibitor, single point]	–
COCCNC(=O)CSc1c2c(nc3ccc(Cl)cc13)CCCC2	inactive	–
COc1cc(Cl)c(NC2=CC(=O)C(=O)c3ccccc32)c(OC)c1	inactive	–
C#CCOCCOCCOCCNc1nc(N2CCN(C(=O)[C@H]([C@@H](C)CC)n3cc([C@@H](N)CC(C)C)nn3)CC2)nc(N2CCN(C(=O)[C@H](CCCCN)n3cc([C@@H](N)C(C)CC)nn3)CC2)n1 (some centres not stated)	inconclusive: 22.4 µM [inhibitor, single point]	–
O=C(O)CCSc1nc2ccccc2s1	inactive	–
COc1ccc(Cn2nnc3c(=O)[nH]c(C(=O)NCCc4ccc(F)cc4)nc32)cc1OC	inconclusive: 14.1 µM [inhibitor, single point]	–
CC(C)(C)c1ccc(/C=C/C(=O)N2CCc3ccccc3C2)cc1	inconclusive: 20 µM [inhibitor, single point]	–
COc1ccc(CNC(=O)c2cccc3c2C(=O)N(CC2CCCO2)C3)cc1 (configuration not stated)	inconclusive: 22.4 µM [inhibitor, single point]	–
CC1CCC(NC(=O)c2ccc(NS(=O)(=O)c3ccc4[nH]c(=O)[nH]c4c3)cc2)CC1 (configuration not stated)	inactive	–
COc1ccccc1N(/N=C1\Sc2ccccc2C1=O)C(C)=O	inconclusive: 25.1 µM [inhibitor, single point]	–
O=C1[C@H]2C(c3ccccc3)=NN(c3ccccc3)[C@H]2C(=O)N1c1ccccc1	inactive	–
O=C(Nc1ccc2c(c1)OCCO2)NC1(C(F)(F)F)Oc2ccccc2O1	inactive	–
O=C(NCc1ccccc1)c1cccc(COc2ccc(Cl)cc2)c1	inactive	–
COc1ccc(Oc2cn[nH]c2-c2ccc(OC)cc2O)cc1	inconclusive: 17.8 µM [inhibitor, single point]	–
CCOc1ccc2nc(NCCNC(=O)C(C)C)c(C)cc2c1	inactive	–
Cc1c(C)n(CC(O)CN2CCCCC2)c2ccccc12 (configuration not stated)	inactive	–
COc1ccc(N2CCN(c3ccc(NC(=O)C4CCCCC4)cc3C#N)CC2)cc1	inactive	–
Cc1cc(C)cc(C(=O)NC(=S)Nc2ccc3c(c2)OCCO3)c1	inactive	–
Cc1ccc(C)c(CN2CCC(CNC(=O)Nc3ccc(C)c(C)c3)CC2)c1	inconclusive: 22.4 µM [inhibitor, single point]	–
COc1ccc(-n2c(=O)c3c4c(sc3n(Cc3cccc(F)c3)c2=O)CN(C(C)=O)CC4)c(OC)c1	inconclusive: 100 µM [inhibitor, single point]	–
CC(=O)c1nnn(-c2c(F)cccc2F)c1C	inconclusive: 112 µM [inhibitor, single point]	–
COc1cc(OC)cc(C(=O)Nc2ccccc2N2CCOCC2)c1	inactive	–
CCC(=O)N/C(N)=N/c1nc(C)c2cc(C)c(C)cc2n1	inconclusive: 100 µM [inhibitor, single point]	–

SMILES	Potency	activity, negative = inhibition
CC(CN1CCOCC1)OC(=O)c1ccccc1 (configuration not stated)	inconclusive: 89.1 µM [inhibitor, single point]	–
C=C(C)Cc1c(C)c(C#N)c2nc3ccccc3n2c1N1CCCCC1	inactive	–
Cn1cc(/C=C/c2cc[n+](C)cc2)c2cc(Cl)ccc21	–	inconclusive: 66.3% [activator]
Fc1ccc(N/N=C/c2ccc(N3CCOCC3)cc2)c(F)c1	inactive	–
CCn1c2ccccc2c2cc(NC(=O)C(C)Oc3ccc(OC)cc3)ccc21 (configuration not stated)	inconclusive: 15.8 µM [inhibitor, single point]	–
O=C(COc1ccc(S(=O)(=O)NCc2ccccc2)cc1Cl)NCc1ccccn1	inconclusive: 25.1 µM [inhibitor, single point]	–
CCOC(=O)c1ccccc1NC(=O)c1ccccc1NS(C)(=O)=O	inactive	–
Cc1c(C(=O)N2CCCC(C(F)(F)F)C2)oc2ccccc12 (configuration not stated)	inconclusive: 100 µM [inhibitor, single point]	–
Cc1csc(NC(=O)c2ccc(Cl)cc2[N+](=O)[O-])n1	inactive	–
COc1cc(CN2CCN(c3ncccn3)CC2)cc(OC)c1	inconclusive: 501 µM [inhibitor, single point]	–
CC1(C)C2CCC1(C)C(OCCNCCOC(=O)Nc1ccccc1)C2 (configuration not stated)	inconclusive: 100 µM [inhibitor, single point]	–
O=C(Nc1ccc(S(=O)(=O)N2CCCC2)cc1)c1ccccc1	inactive	–
CSc1cccc(NC(=O)CN(Cc2ccc(Cl)cc2)S(C)(=O)=O)c1	inconclusive: 25.1 µM [inhibitor, partial curve, poor fit]	–
COc1cc(C2SCCS2)cc(Br)c1Oc1ncccc1[N+](=O)[O-]	inconclusive: 63.1 µM [inhibitor, partial curve, poor fit]	–
CC(NC(=O)c1ccccc1)c1nnc(SCC(=O)NC2=NCCS2)n1C (configuration not stated)	inconclusive: 20 µM [inhibitor, single point]	–
COc1ccc(N2CCN(C(=O)Cn3c(=O)c4cccn4c4cccnc43)CC2)cc1	inconclusive: 28.2 µM [inhibitor, partial curve, poor fit]	–
O=C(NCc1ccc(Cl)cc1)C1CC(O)CN1S(=O)(=O)c1ccc(Cl)cc1 (configuration not stated)	inconclusive: 20 µM [inhibitor, single point]	–
CC(NC(=O)CCl)c1ccccc1Br (configuration not stated)	inactive	–
Cc1ccc2c(c1)c1nc3ccccc3nc1n2C	inconclusive: 22.4 µM [inhibitor, single point]	–
Cc1c(C)c2c(OCC(=O)N[C@@H](CC(C)C)C(=O)O)cc3c(c2oc1=O)CCC(C)(C)O3	inconclusive: 100 µM [inhibitor, single point]	–
Cc1ccc(Cl)cc1NC(=S)N(CCN(C)C)C(C)c1ccccn1 (configuration not stated)	inconclusive: 28.2 µM [inhibitor, single point]	–
Clc1ncnc2c1oc1ccccc12	inconclusive: 89.1 µM [inhibitor, single point]	–
COc1ccc(NC(=O)c2cc(S(=O)(=O)N3CCCC3)ccc2OC)cc1	inconclusive: 2240 µM [inhibitor, partial curve, poor fit]	–
COc1ccc(-n2cnc3c(sc4nccc(N(C)C)c43)c2=O)cc1	inactive	–

Record cards, from the list above:
Cn1cc(/C=C/c2cc[n+](C)cc2)c2cc(Cl)ccc21 in the list: activity, negative = inhibition: inconclusive: 66.3% [activator]
Cc1ccc2c(c1)c1nc3ccccc3nc1n2C in the list: Potency: inconclusive: 22.4 µM [inhibitor, single point]
COc1cc(CN2CCN(c3ncccn3)CC2)cc(OC)c1 in the list: Potency: inconclusive: 501 µM [inhibitor, single point]
Cc1c(C)c2c(OCC(=O)N[C@@H](CC(C)C)C(=O)O)cc3c(c2oc1=O)CCC(C)(C)O3 in the list: Potency: inconclusive: 100 µM [inhibitor, single point]

Carrying on:

SMILES	Potency	activity, negative = inhibition
CC1CN(S(=O)(=O)c2ccc(C(=O)Nc3nnc(-c4ccco4)o3)cc2)CC(C)O1 (configuration not stated)	inconclusive: 20 µM [inhibitor, partial curve, poor fit]	–
Cc1ccc(NC(=O)CN(C)C(=O)Cn2ncc(Cl)c(Cl)c2=O)cc1	inactive	–
CCN1/C(=C/C=C/c2oc3ccc4ccccc4c3[n+]2CC)Oc2ccc3ccccc3c21	inconclusive: 50.1 µM [activator, partial curve, poor fit]	–
C=CCSc1nc2[nH]ncc2c(=O)[nH]1	inconclusive: 89.1 µM [inhibitor, single point]	–
CCOc1ccc(Oc2cc(NC(=O)c3ccco3)cc([N+](=O)[O-])c2)cc1	inconclusive: 1000 µM [inhibitor, partial curve, poor fit]	–
Fc1cccc(NC(=S)N2CCCCC2)c1	inconclusive: 100 µM [inhibitor, partial curve, poor fit]	–
O=S(=O)(NCc1ccc2c(c1)OCO2)c1cccc(F)c1	inactive	–
O=C1/C(=C\c2cc(Cl)c(O)c(Cl)c2)SC(=S)N1Cc1ccccc1	inconclusive: 31.6 µM [activator, partial curve]	–
CCOC(=O)N1CCC(NC(=O)C2CCCN(Cc3nc(-c4cccc(C)c4)oc3C)C2)CC1 (configuration not stated)	inconclusive: 22.4 µM [inhibitor, single point]	–
Clc1ccccc1CSC1=NCCN1	inconclusive: 89.1 µM [inhibitor, single point]	–
COC(=O)c1sccc1S(=O)(=O)N1CCCC(N(C)CCc2ccccn2)C1 (configuration not stated)	inconclusive: 22.4 µM [inhibitor, partial curve, poor fit]	–
CCCOP(=O)(c1ccc(N(C)C)cc1)C(O)c1ccc(Cl)cc1 (configuration not stated)	inactive	–
Cc1ccc(NS(=O)(=O)c2cc(C(=O)NCc3ccccn3)ccc2Cl)cc1C	inactive	–
Cc1cc(NC(=O)c2ccc(Cl)cc2)c(C(C)C)cc1O	inconclusive: 1000 µM [inhibitor, partial curve, poor fit]	–
Cn1c(=O)oc2cc(S(=O)(=O)Nc3ccc(Cl)cc3)ccc21	inactive	–
Cn1c(=O)c2c(nc(NCc3cccnc3)n2Cc2ccc(Cl)cc2)n(C)c1=O	inactive	–
O=S(=O)(c1ccc(Cl)cc1)N1CCC(n2cccc2)CC1	inconclusive: 100 µM [inhibitor, single point]	–
COc1ccc(-c2csc(NC(=O)CSc3nc(SC)ns3)n2)cc1	inactive	–
O=C(/C=C/c1cccc([N+](=O)[O-])c1)Nc1cccc(NC(=O)c2cccs2)c1	inactive	–
CCOC(=O)C(C(=O)OCC)C(Nc1cccc(Br)c1)c1ccccc1 (configuration not stated)	inconclusive: 112 µM [inhibitor, partial curve, poor fit]	–
COc1ccc(Cc2nnc(SCC(=O)Nc3ccc(C)c(C)c3)o2)cc1OC	inconclusive: 20 µM [inhibitor, single point]	–
Cc1nc2cc(Cl)c(Cl)cc2n1CCCO	inconclusive: 100 µM [inhibitor, single point]	–
NN/C(=C\[N+](=O)[O-])Nc1ccc(Cl)cc1	inactive	–
